Assay results published in article PMC9739877, “Discovery and Mechanistic Investigation of Piperazinone Phenylalanine Derivatives with Terminal Indole or Benzene Ring as Novel HIV-1 Capsid Modulators” (Molecules, 2022).

Conditions: human, microsomes, 1 h, 1 μM

Remaining (NCF = 60 min): 93.6%
Remaining (T = 60 min): 0.0%
SMILES: CCCNCC(O)COc1ccccc1C(=O)CCc1ccccc1 (centres unmarked) [Propafenone, propafenone]
